In the supplement of paper PMC4604168 (melanoma cell lines):
The other results are listed elsewhere or left out. Repeats are few or missing, and single values can be far off.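 The apoptosis fraction was the count of cleaved-PARP antibody-stained nuclei relative to all DNA-stained nuclei, imaged in 1,536-well plates. Screening doses were set so most cells survived, and baseline and induced cleaved-PARP levels vary greatly across cell lines.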

These compounds were tested on WM1716 (assay: cleaved PARP positive nuclei fraction relative to DMSO control; melanoma cells; higher = more apoptosis). Conditions: library dose: low library concentration; 72 h.

Structure (SMILES) | cleaved PARP positive nuclei fraction [%]
Cn1cnc2c(F)c(Nc3ccc(Br)cc3Cl)c(C(=O)NOCCO)cc21 [selumetinib] + Cn1nnc2c(C(N)=O)ncn2c1=O [temozolomide] (first compound 0.015 µM, partner dose 2 µM) | 303
C[C@]1(O)C[C@@H](c2nc(-c3ccc4ccc(-c5ccccc5)nc4c3)c3c(N)nccn32)C1 + CS(=O)(=O)c1ccc(C(=O)Nc2ccc(Cl)c(-c3ccccn3)c2)c(Cl)c1 [vismodegib] (first compound 0.4 µM, partner dose 1 µM) | 64.9
C[C@]1(O)C[C@@H](c2nc(-c3ccc4ccc(-c5ccccc5)nc4c3)c3c(N)nccn32)C1 + Cc1cc(Nc2cc(N3CCN(C)CC3)nc(/C=C/c3ccccc3)n2)n[nH]1 [ENMD2076] (first compound 0.4 µM, partner dose 0.04 µM) | 198
Cn1cnc2c(F)c(Nc3ccc(Br)cc3Cl)c(C(=O)NOCCO)cc21 [selumetinib] + O=C(O)[C@@H]1[O][Sb](=[O])([O][Sb]2(=[O])[O][C@H]([C@H](O)CO)[C@H](O)[C@H](C(=O)O)[O]2)[O][C@H]([C@H](O)CO)[C@@H]1O [stibogluconate] (first compound 0.015 µM, partner dose 2 µM) | 125
Cn1cnc2c(F)c(Nc3ccc(Br)cc3Cl)c(C(=O)NOCCO)cc21 [selumetinib] + CCN(CC)CCNC(=O)c1c(C)[nH]c(/C=C2\C(=O)Nc3ccc(F)cc32)c1C [sunitinib] (first compound 0.015 µM, partner dose 0.4 µM) | 180
Cn1sc(=O)n(Cc2ccccc2)c1=O + CN(c1ncccc1CNc1nc(Nc2ccc3c(c2)CC(=O)N3)ncc1C(F)(F)F)S(C)(=O)=O [PF562271] (first compound 0.4 µM, partner dose 0.08 µM) | 75.8
CC1(C)CCC(c2ccc(Cl)cc2)=C(CN2CCN(c3ccc(C(=O)NS(=O)(=O)c4ccc(N[C@H](CCN5CCOCC5)CSc5ccccc5)c(S(=O)(=O)C(F)(F)F)c4)cc3)CC2)C1 + OCc1c[nH]c2ccccc12 [Indole-3-carbinol] (first compound 0.4 µM, partner dose 0.8 µM) | 113
CC(=O)O[C@@]12CO[C@@H]1C[C@H](O)[C@@]1(C)C(=O)[C@H](O)C3=C(C)[C@@H](OC(=O)[C@H](O)[C@@H](NC(=O)OC(C)(C)C)c4ccccc4)C[C@@](O)([C@@H](OC(=O)c4ccccc4)[C@H]21)C3(C)C [Docetaxel] + NC1(c2ccc(-c3nc4ccn5c(=O)[nH]nc5c4cc3-c3ccccc3)cc2)CCC1 [MK2206] (first compound 0.0001 µM, partner dose 0.4 µM) | 99.9
C[C@]1(O)C[C@@H](c2nc(-c3ccc4ccc(-c5ccccc5)nc4c3)c3c(N)nccn32)C1 + Nc1cccc2c1CN(C1CCC(=O)NC1=O)C2=O [lenalidomide] (first compound 0.4 µM, partner dose 1 µM) | 172
C[C@@H](N)c1ccc(C(=O)Nc2ccnc3[nH]ccc23)cc1 + C=CCNC1=C2C[C@@H](C)C[C@H](OC)[C@H](O)[C@@H](C)/C=C(\C)[C@H](OC(N)=O)[C@@H](OC)/C=C\C=C(/C)C(=O)NC(=CC1=O)C2=O [Tanespimycin] (first compound 0.4 µM, partner dose 0.002 µM) | 135

At a glance, some entries already given:
Structure (SMILES) | cleaved PARP positive nuclei fraction [%]
Cn1sc(=O)n(Cc2ccccc2)c1=O + CN(c1ncccc1CNc1nc(Nc2ccc3c(c2)CC(=O)N3)ncc1C(F)(F)F)S(C)(=O)=O [PF562271] (first compound 0.4 µM, partner dose 0.08 µM) | 75.8
CC1(C)CCC(c2ccc(Cl)cc2)=C(CN2CCN(c3ccc(C(=O)NS(=O)(=O)c4ccc(N[C@H](CCN5CCOCC5)CSc5ccccc5)c(S(=O)(=O)C(F)(F)F)c4)cc3)CC2)C1 + OCc1c[nH]c2ccccc12 [Indole-3-carbinol] (first compound 0.4 µM, partner dose 0.8 µM) | 113
CC(=O)O[C@@]12CO[C@@H]1C[C@H](O)[C@@]1(C)C(=O)[C@H](O)C3=C(C)[C@@H](OC(=O)[C@H](O)[C@@H](NC(=O)OC(C)(C)C)c4ccccc4)C[C@@](O)([C@@H](OC(=O)c4ccccc4)[C@H]21)C3(C)C [Docetaxel] + NC1(c2ccc(-c3nc4ccn5c(=O)[nH]nc5c4cc3-c3ccccc3)cc2)CCC1 [MK2206] (first compound 0.0001 µM, partner dose 0.4 µM) | 99.9
C[C@]1(O)C[C@@H](c2nc(-c3ccc4ccc(-c5ccccc5)nc4c3)c3c(N)nccn32)C1 + Nc1cccc2c1CN(C1CCC(=O)NC1=O)C2=O [lenalidomide] (first compound 0.4 µM, partner dose 1 µM) | 172
C[C@@H](N)c1ccc(C(=O)Nc2ccnc3[nH]ccc23)cc1 + C=CCNC1=C2C[C@@H](C)C[C@H](OC)[C@H](O)[C@@H](C)/C=C(\C)[C@H](OC(N)=O)[C@@H](OC)/C=C\C=C(/C)C(=O)NC(=CC1=O)C2=O [Tanespimycin] (first compound 0.4 µM, partner dose 0.002 µM) | 135

These compounds were tested on WM1745 in the same assay as above. Conditions: library dose: low library concentration; 72 h.

Structure (SMILES) | cleaved PARP positive nuclei fraction [%]
NC(=O)c1ccc(N(C(N)=O)c2c(F)cccc2F)nc1-c1ccc(F)cc1F + Nc1nc(F)nc2c1ncn2[C@@H]1O[C@H](CO)[C@@H](O)[C@@H]1O [fludarabine] (first compound 0.4 µM, partner dose 0.2 µM) | 103
Cn1sc(=O)n(Cc2ccccc2)c1=O + CNC(=O)c1cc(Oc2ccc(NC(=O)Nc3ccc(Cl)c(C(F)(F)F)c3)cc2)ccn1 [sorafenib] (first compound 0.4 µM, partner dose 0.4 µM) | 80.7
COc1ccc(C2=N[C@@H](c3ccc(Cl)cc3)[C@@H](c3ccc(Cl)cc3)N2C(=O)N2CCNC(=O)C2)c(OC(C)C)c1 [Nutlin-3] + CN(c1ncccc1CNc1nc(Nc2ccc3c(c2)CC(=O)N3)ncc1C(F)(F)F)S(C)(=O)=O [PF562271] (first compound 0.1 µM, partner dose 0.08 µM) | 91.2
CN(c1ncccc1CNc1nc(Nc2ccc3c(c2)CC(=O)N3)ncc1C(F)(F)F)S(C)(=O)=O + Cn1c(=O)n(-c2ccc(C(C)(C)C#N)cc2)c2c3cc(-c4cnc5ccccc5c4)ccc3ncc21 [NVP-BEZ235] (first compound 0.08 µM, partner dose 0.004 µM) | 111
Cn1sc(=O)n(Cc2ccccc2)c1=O + CCN(CC)CCNC(=O)c1c(C)[nH]c(/C=C2\C(=O)Nc3ccc(F)cc32)c1C [sunitinib] (first compound 0.4 µM, partner dose 0.4 µM) | 237
CC1(C)CCC(c2ccc(Cl)cc2)=C(CN2CCN(c3ccc(C(=O)NS(=O)(=O)c4ccc(N[C@H](CCN5CCOCC5)CSc5ccccc5)c(S(=O)(=O)C(F)(F)F)c4)cc3)CC2)C1 + Cc1nc(Nc2ncc(C(=O)Nc3c(C)cccc3Cl)s2)cc(N2CCN(CCO)CC2)n1 [dasatanib] (first compound 0.4 µM, partner dose 0.004 µM) | 2030
Cn1cnc2c(F)c(Nc3ccc(Br)cc3Cl)c(C(=O)NOCCO)cc21 [selumetinib] + Cn1c(Nc2ccc(C(F)(F)F)cc2)nc2cc(Oc3ccnc(-c4ncc(C(F)(F)F)[nH]4)c3)ccc21 [CHIR265] (first compound 0.015 µM, partner dose 0.08 µM) | 131
C[C@@H](N)c1ccc(C(=O)Nc2ccnc3[nH]ccc23)cc1 + Nc1ncn([C@H]2C[C@H](O)[C@@H](CO)O2)c(=O)n1 [decitabine] (first compound 0.4 µM, partner dose 0.1 µM) | 112
CC1(C)CCC(c2ccc(Cl)cc2)=C(CN2CCN(c3ccc(C(=O)NS(=O)(=O)c4ccc(N[C@H](CCN5CCOCC5)CSc5ccccc5)c(S(=O)(=O)C(F)(F)F)c4)cc3)CC2)C1 + COCC[n+]1c2c(n(Cc3cnccn3)c1C)C(=O)c1ccccc1C2=O [YM155] (first compound 0.4 µM, partner dose 0.0004 µM) | 994
Cn1sc(=O)n(Cc2ccccc2)c1=O + CS(=O)(=O)CCNCc1ccc(-c2ccc3ncnc(Nc4ccc(OCc5cccc(F)c5)c(Cl)c4)c3c2)o1 [lapatinib] (first compound 0.4 µM, partner dose 0.8 µM) | 95.1
Cn1cnc2c(F)c(Nc3ccc(Br)cc3Cl)c(C(=O)NOCCO)cc21 [selumetinib] + Nc1nc(F)nc2c1ncn2[C@@H]1O[C@H](CO)[C@@H](O)[C@@H]1O [fludarabine] (first compound 0.015 µM, partner dose 0.2 µM) | 118
CS(=O)(=O)c1ccc(C(=O)Nc2ccc(Cl)c(-c3ccccn3)c2)c(Cl)c1 [vismodegib] + CC(C)C[C@H](NC(=O)[C@H](Cc1ccccc1)NC(=O)c1cnccn1)B(O)O [Bortezomib] (first compound 1 µM, partner dose 0.001 µM) | 107
CC1(C)CCC(c2ccc(Cl)cc2)=C(CN2CCN(c3ccc(C(=O)NS(=O)(=O)c4ccc(N[C@H](CCN5CCOCC5)CSc5ccccc5)c(S(=O)(=O)C(F)(F)F)c4)cc3)CC2)C1 + C=C(c1ccc(C(=O)O)cc1)c1cc2c(cc1C)C(C)(C)CCC2(C)C [Bexarotene] (first compound 0.4 µM, partner dose 2 µM) | 459
CS(=O)(=O)c1ccc(C(=O)Nc2ccc(Cl)c(-c3ccccn3)c2)c(Cl)c1 [vismodegib] + CC(=O)c1c(C)c2cnc(Nc3ccc(N4CCNCC4)cn3)nc2n(C2CCCC2)c1=O [palbociclib] (first compound 1 µM, partner dose 0.04 µM) | 106
NC(=O)c1ccc(N(C(N)=O)c2c(F)cccc2F)nc1-c1ccc(F)cc1F + C#Cc1cccc(Nc2ncnc3cc(OCCOC)c(OCCOC)cc23)c1 [erlotinib] (first compound 0.4 µM, partner dose 0.8 µM) | 136
CS(=O)(=O)c1ccc(C(=O)Nc2ccc(Cl)c(-c3ccccn3)c2)c(Cl)c1 [vismodegib] + Nc1nc(F)nc2c1ncn2[C@@H]1O[C@H](CO)[C@@H](O)[C@@H]1O [fludarabine] (first compound 1 µM, partner dose 0.2 µM) | 85.8
NC(=O)c1ccc(N(C(N)=O)c2c(F)cccc2F)nc1-c1ccc(F)cc1F + C=CCNC1=C2C[C@@H](C)C[C@H](OC)[C@H](O)[C@@H](C)/C=C(\C)[C@H](OC(N)=O)[C@@H](OC)/C=C\C=C(/C)C(=O)NC(=CC1=O)C2=O [Tanespimycin] (first compound 0.4 µM, partner dose 0.002 µM) | 107
CC(=O)O[C@@]12CO[C@@H]1C[C@H](O)[C@@]1(C)C(=O)[C@H](O)C3=C(C)[C@@H](OC(=O)[C@H](O)[C@@H](NC(=O)OC(C)(C)C)c4ccccc4)C[C@@](O)([C@@H](OC(=O)c4ccccc4)[C@H]21)C3(C)C [Docetaxel] + C=C(c1ccc(C(=O)O)cc1)c1cc2c(cc1C)C(C)(C)CCC2(C)C [Bexarotene] (first compound 0.0001 µM, partner dose 2 µM) | 198
